For 25 compounds, survivor count results are on record in PubChem BioAssay AID248 (DTP/NCI, 2004).

Each structure is given as a SMILES string. The list is a part of this screen's results and no random one: it is rich in T/C values a quarter to a half above the control, in often repeated tests (any T/C) and in doses without a T/C. Other doses and runs of a compound stand elsewhere. T/C gives the treated animals as a percentage of the vehicle group. Some entries give survivors of the animals treated and no T/C: the source files T/C as zero there, which appears to mark a toxic dose or a test without result, not a measured value. Some survivor counts are full or nearly so, which does not show that the dose was tolerated: the source hardly ever lists a survival T/C far under the control, and the zero likely stands for such cases as well. Survivors were counted at the toxicity check, usually on the fifth day, unless a day is given; later deaths do not show. Schedules are NCI's codes, read here as Q, the interval in days (D) or hours (H), X, the number of doses. Some schedule codes hold Z or #, which are not explained here. Some entries hold several experiments; their values stand side by side, smallest first.

The subject of the assay is L1210 leukemia ip in BDF1 mice, survival T/C. Nature of the assay: NCI In Vivo Anticancer Drug Screen. Data for tumor model L1210 Leukemia (intraperitoneal) in B6D2F1 (BDF1) mice. As to conditions: higher T/C = longer survival.
The mark [1] stands for this setting: T/C endpoint: mean survival time, dose: 100.0 mg/kg/injection, schedule: Q01DX009 (ip), vehicle: saline with Tween-80.
Setting [2] is: T/C endpoint: mean survival time, dose: 200.0 mg/kg/injection, schedule: Q01DX009 (ip), vehicle: saline with Tween-80.
[3] abbreviates: T/C endpoint: mean survival time, dose: 400.0 mg/kg/injection, schedule: Q01DX001 (ip), vehicle: saline.
Where [4] appears, read: T/C endpoint: mean survival time, dose: 200.0 mg/kg/injection, schedule: Q01DX009 (ip), vehicle: Klucel (hydroxypropylcellulose) (HPC).
[5] abbreviates: T/C endpoint: mean survival time, dose: 150.0 mg/kg/injection, schedule: Q01DX001 (ip), vehicle: saline.
[6] abbreviates: T/C endpoint: mean survival time, dose: 300.0 mg/kg/injection, schedule: Q01DX001 (ip), vehicle: saline.
Where [7] appears, read: T/C endpoint: mean survival time, dose: 200.0 mg/kg/injection, schedule: Q01DX001 (ip), vehicle: saline.
[8] abbreviates: T/C endpoint: mean survival time, dose: 400.0 mg/kg/injection, schedule: Q01DX009 (ip), vehicle: saline with Tween-80.

Take `CCN(CC)CCN(CCN(CC)CC)c1ccc2ccccc2c1`: the survivor count runs as follows: (T/C endpoint: mean survival time, dose: 150.0 mg/kg/injection, schedule: Q01DX001 (ip), vehicle: acetone) 2 of 6; (T/C endpoint: mean survival time, dose: 300.0 mg/kg/injection, schedule: Q01DX001 (ip), vehicle: acetone) 0 of 6.
As to `CCCCCCCCNc1cc2c3c(c1)CCCN3CCC2`, the survivor count (T/C endpoint: mean survival time, dose: 6.25 mg/kg/injection, schedule: Q01DX009 (ip), vehicle: saline) is on record as 3 of 6; the survivor count (T/C endpoint: mean survival time, dose: 12.5 mg/kg/injection, schedule: Q01DX009 (ip), vehicle: saline) was 0 of 6; the survivor count (T/C endpoint: mean survival time, dose: 12.5 mg/kg/injection, schedule: Q04DX003 (ip), vehicle: alcohol) is 4 of 6; the survivor count (T/C endpoint: mean survival time, dose: 25.0 mg/kg/injection, schedule: Q01DX009 (ip), vehicle: saline) is 0 of 6; the survivor count (T/C endpoint: mean survival time, dose: 50.0 mg/kg/injection, schedule: Q04DX003 (ip), vehicle: alcohol) is recorded as 0 of 6; the survivor count (T/C endpoint: mean survival time, dose: 100.0 mg/kg/injection, schedule: Q04DX003 (ip), vehicle: alcohol) is on record as 0 of 6. The survivor count is given as 0 of 6 (T/C endpoint: mean survival time, dose: 200.0 mg/kg/injection, schedule: Q04DX003 (ip), vehicle: alcohol) and 0 of 6 (T/C endpoint: mean survival time, dose: 400.0 mg/kg/injection, schedule: Q04DX003 (ip), vehicle: alcohol).
Take `CCNc1nnc(N=Nc2ccccc2)s1`: the survivor count is, setting by setting: (T/C endpoint: mean survival time, dose: 50.0 mg/kg/injection, schedule: Q01DX009 (ip), vehicle: saline with Tween-80) 6 of 6; under setting [1], 6 of 6; under setting [2], 6 of 6.
In the case of `C[P+]1(CCc2ccc(Cl)cc2)CC=CC1`, the survivor count (T/C endpoint: mean survival time, dose: 200.0 mg/kg/injection, schedule: Q04DX003 (ip), vehicle: saline) was 1 of 6 and the survivor count (T/C endpoint: mean survival time, dose: 400.0 mg/kg/injection, schedule: Q04DX003 (ip), vehicle: saline) was 1 of 6.
On to `CN(C(=S)Nc1ccccc1)c1cc(N2CCCC2)ccn1`, for which, under setting [3], the survivor count was 1 of 6.
For the compound `COC(=O)c1cc(N2CC2)nc(SC)n1`, the survivor count reads like this: (T/C endpoint: mean survival time, dose: 25.0 mg/kg/injection, schedule: Q01DX Z (ip), vehicle: methylcellulose (MC)) 0 of 6; (T/C endpoint: mean survival time, dose: 50.0 mg/kg/injection, schedule: Q01DX Z (ip), vehicle: methylcellulose (MC)) 0 of 6; (T/C endpoint: mean survival time, dose: 100.0 mg/kg/injection, schedule: Q01DX Z (ip), vehicle: methylcellulose (MC)) 0 of 6; (T/C endpoint: mean survival time, dose: 200.0 mg/kg/injection, schedule: Q01DX Z (ip), vehicle: methylcellulose (MC)) 0 of 6.
On to `O=[N+]([O-])c1c(Br)ncn1Cc1ccccc1`, for which the survivor count (T/C endpoint: mean survival time, dose: 400.0 mg/kg/injection, schedule: Q04DX003 (ip), vehicle: acetone) is recorded as 1 of 6.
As for `ClC(Cl)(Cl)c1nccnc1Br`, the survivor count is, setting by setting: (T/C endpoint: mean survival time, dose: 100.0 mg/kg/injection, schedule: Q01DX009 (ip), vehicle: Klucel (hydroxypropylcellulose) (HPC)) 3 of 3; under setting [4], 2 of 3.
As to `Cc1ccc([P+](Cc2ccccc2)(c2ccccc2)c2ccc(C)cc2)cc1`, the survivor count is 2 of 6 (T/C endpoint: mean survival time, dose: 30.0 mg/kg/injection, schedule: Q01DX001 (ip), vehicle: saline); 0 of 6 (T/C endpoint: mean survival time, dose: 60.0 mg/kg/injection, schedule: Q01DX001 (ip), vehicle: saline); 0 of 6 (T/C endpoint: mean survival time, dose: 75.0 mg/kg/injection, schedule: Q01DX001 (ip), vehicle: saline); 0 of 6 under setting [5]; 0 of 6 under setting [6].
Take `O=C(CCCC(=O)N/N=C/C1CC=CCC1)N/N=C\C1CC=CCC1` (stereo not given): the survivor count (T/C endpoint: mean survival time, dose: 200.0 mg/kg/injection, schedule: Q01DX001 (ip), vehicle: other) is on record as 4 of 4.
As to `COc1cc2c(cc1OC)C1(CCBr)C3CC4C(=CCOC5CC(=O)N2C1C54)CN3C(=O)Cc1ccccc1` (stereo not given), the survivor count by setting is: under setting [5], 0 of 6; under setting [6], 0 of 6.
Take `N=C(N)SCc1ccc(CSC(=N)N)cc1`: the survivor count was 0 of 3 (T/C endpoint: mean survival time, dose: 50.0 mg/kg/injection, schedule: Q04DX002 (ip), vehicle: saline with Tween-80); 0 of 6 (T/C endpoint: mean survival time, dose: 100.0 mg/kg/injection, schedule: Q01DX009 (ip), vehicle: saline); 0 of 3 (T/C endpoint: mean survival time, dose: 100.0 mg/kg/injection, schedule: Q04DX002 (ip), vehicle: saline with Tween-80); 0 of 3 (T/C endpoint: mean survival time, dose: 200.0 mg/kg/injection, schedule: Q04DX002 (ip), vehicle: saline with Tween-80); 0 of 3 (T/C endpoint: mean survival time, dose: 400.0 mg/kg/injection, schedule: Q04DX002 (ip), vehicle: saline with Tween-80).
With `CC1C[N+](C)=C(c2ccc(O)cc2)S1` (stereo not given), the survivor count (T/C endpoint: mean survival time, dose: 200.0 mg/kg/injection, schedule: Q01DX001 (ip), vehicle: saline with Tween-80) was 0 of 3.
Turning to `O=C1CCSc2c1ccc1ccccc21`, the survivor count was 4 of 4 under setting [7] and 4 of 4 under setting [3].
With `O=C1c2cscc2Cc2ccsc21`, the survivor count (T/C endpoint: mean survival time, dose: 400.0 mg/kg/injection, schedule: Q01DX001 (ip), vehicle: saline with Tween-80) is on record as 0 of 3.
Turning to `O=C1C=C(NCCc2cnc[nH]2)c2ccccc2C1=O`, the survivor count under setting [4] is 3 of 3.
Consider `CC1=CC(=O)C(CO)=CC1=O`, for which the survivor count (T/C endpoint: mean survival time, dose: 12.0 mg/kg/injection, schedule: Q01DX009 (ip), vehicle: other) is on record as 1 of 3; the survivor count (T/C endpoint: mean survival time, dose: 12.0 mg/kg/injection, schedule: Q04DX002 (ip), vehicle: other) is on record as 3 of 3; the survivor count (T/C endpoint: mean survival time, dose: 25.0 mg/kg/injection, schedule: Q04DX002 (ip), vehicle: other) was 0 of 3; the survivor count (T/C endpoint: mean survival time, dose: 50.0 mg/kg/injection, schedule: Q04DX002 (ip), vehicle: other) is recorded as 0 of 3; the survivor count (T/C endpoint: mean survival time, dose: 100.0 mg/kg/injection, schedule: Q04DX002 (ip), vehicle: other) is listed as 0 of 3; the survivor count (T/C endpoint: mean survival time, dose: 200.0 mg/kg/injection, schedule: Q04DX002 (ip), vehicle: other) is listed as 0 of 3. Also, the survivor count (T/C endpoint: mean survival time, dose: 400.0 mg/kg/injection, schedule: Q04DX002 (ip), vehicle: other) is on record as 0 of 3.
On to `CC(C)c1ccc(/C=N\NC(=O)N/N=C/c2ccc(C(C)C)cc2)cc1`, for which the survivor count (T/C endpoint: mean survival time, dose: 400.0 mg/kg/injection, schedule: Q04DX003 (ip), vehicle: Klucel (hydroxypropylcellulose) (HPC)) is given as 6 of 6.
In the case of `CCN(CC)c1ccc(NC(C)S(=O)(=O)O)cc1` (stereo not given), the survivor count reads like this: under setting [1], 4 of 6; under setting [2], 0 of 6; under setting [8], 0 of 6.
Take `O=c1[nH]c(=O)n(CCCc2ccccc2)cc1-c1ccccc1`: the survivor count (T/C endpoint: mean survival time, dose: 100.0 mg/kg/injection, schedule: Q01DX001 (ip), vehicle: carboxymethylcellulose (CMC)) was 4 of 4 and the survivor count (T/C endpoint: mean survival time, dose: 200.0 mg/kg/injection, schedule: Q01DX001 (ip), vehicle: carboxymethylcellulose (CMC)) is 4 of 4.
In the case of `Cc1ccc(C)c(NC(=O)NCc2ccco2)c1`, the survivor count under setting [8] is listed as 5 of 6.
Regarding `CC1CCNC(C(C)C)CC1` (stereo not given), the survivor count (T/C endpoint: mean survival time, dose: 400.0 mg/kg/injection, schedule: Q04DX002 (ip), vehicle: saline) was 0 of 3.
In the case of `O=S(=O)(C(Br)CBr)C(Br)CBr` (stereo not given), the survivor count under setting [1] is 3 of 6.
Regarding `[I][Hg][CH2]C1COC([CH2][Hg][I])CO1` (stereo not given), the survivor count is 6 of 6 (T/C endpoint: median survival time, dose: 12.5 mg/kg/injection, schedule: Q01DX009 (ip), vehicle: saline); 6 of 6 (T/C endpoint: median survival time, dose: 25.0 mg/kg/injection, schedule: Q01DX009 (ip), vehicle: saline); 6 of 6 (T/C endpoint: median survival time, dose: 50.0 mg/kg/injection, schedule: Q01DX009 (ip), vehicle: saline); 3 of 6 and 4 of 6 (T/C endpoint: median survival time, dose: 100.0 mg/kg/injection, schedule: Q01DX009 (ip), vehicle: saline).
`N#CSc1nc2ccccc2s1`: the survivor count (T/C endpoint: mean survival time, dose: 50.0 mg/kg/injection, schedule: Q01DX001 (ip), vehicle: saline) was 1 of 6; the survivor count (T/C endpoint: mean survival time, dose: 100.0 mg/kg/injection, schedule: Q01DX001 (ip), vehicle: saline) is listed as 0 of 6; the survivor count under setting [7] was 0 of 6; the survivor count under setting [3] is on record as 0 of 6.
